Data published in patent US11793208B2, “Antimicrobial treatment of animal carcasses and food products” (EVONIK OPERATIONS GMBH, priority 2017, dated 2023).

What was measured:
[1] = Water holding capacity of lamb livers treated with PAA solutions; details: 1 hour at 22° C.; for Δ Wf, % (WHC): drip dry 1 hour
[2] = Color of treated poultry offal by visual inspection; details: 8-10 seconds
[3] = PAA 100 ppm, pH 7.5 (sodium carbonate)
[4] = PAA 100 ppm, pH 8.5 (sodium carbonate)
[5] = PAA 500 ppm, pH 7.5 (sodium carbonate)
[6] = PAA 500 ppm, pH 8.5 (sodium carbonate)

SMILES: CC(=O)OO [PAA, Peracetic acid]
- Δ WS, % ([1]; PAA 100 ppm, pH 4.1): 6.7%
- Δ Wf, % (WHC) ([1]; PAA 100 ppm, pH 4.1): 2.2%
- Δ WS, % [1, 3]: 8.5%
- Δ Wf, % (WHC) [1, 3]: 7.4%
- Δ WS, % [1, 4]: 9.1%
- Δ Wf, % (WHC) [1, 4]: 4.7%
- Δ WS, % ([1]; PAA 500 ppm, pH 3.3): 6.4%
- Δ Wf, % (WHC) ([1]; PAA 500 ppm, pH 3.3): 0.4%
- Δ WS, % [1, 5]: 6.7%
- Δ Wf, % (WHC) [1, 5]: 3.1%
- Δ WS, % [1, 6]: 7.9%
- Δ Wf, % (WHC) [1, 6]: 4.0%
- Color ([2]; Gizzards, 840 ppm PAA adjusted to pH 10.2 with sodium hydroxide): natural
- Color ([2]; Gizzards, 840 ppm PAA, pH 3.4): bleached
- Color ([2]; Livers, 840 ppm PAA adjusted to pH 10.2 with sodium hydroxide): natural
- Color ([2]; Livers, 840 ppm PAA, pH 3.4): bleached
